The results in this text go back to article PMC9117644 (Frontiers in Bioengineering and Biotechnology, 2022).

Chains of the proteins cited; added tags and fusions are not shown. Residues count along the entry.
UniProt O00206, residues 23-629: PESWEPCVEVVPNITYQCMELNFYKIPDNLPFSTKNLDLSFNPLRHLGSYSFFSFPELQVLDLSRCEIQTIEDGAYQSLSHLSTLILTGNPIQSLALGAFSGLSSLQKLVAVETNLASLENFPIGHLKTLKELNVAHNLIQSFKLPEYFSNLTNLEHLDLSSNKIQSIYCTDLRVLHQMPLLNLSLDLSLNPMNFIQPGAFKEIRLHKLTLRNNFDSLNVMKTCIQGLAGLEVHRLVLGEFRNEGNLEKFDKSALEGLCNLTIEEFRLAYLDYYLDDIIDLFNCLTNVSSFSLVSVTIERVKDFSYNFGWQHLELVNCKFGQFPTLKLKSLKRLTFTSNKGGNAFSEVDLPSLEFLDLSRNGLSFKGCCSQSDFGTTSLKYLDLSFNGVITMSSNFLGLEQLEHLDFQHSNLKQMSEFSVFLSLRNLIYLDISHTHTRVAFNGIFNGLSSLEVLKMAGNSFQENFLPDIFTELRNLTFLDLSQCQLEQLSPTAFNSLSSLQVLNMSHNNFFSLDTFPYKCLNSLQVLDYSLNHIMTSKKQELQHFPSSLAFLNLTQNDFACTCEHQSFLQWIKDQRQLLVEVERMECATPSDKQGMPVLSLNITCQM

Results are given in words; binding and its absence hold for the method and conditions named. For part of these data: In cells and extracts the contact can be indirect. Some entries that bind do so weakly or less than the wild type. For part of these data: Where a sequence is shown, tags or fusion partners need not be part of it.

The target in test [1] is T1, human TLR4 ectodomain (S2-derived) (human, UniProt O00206 23-629).
T1 construct: human toll-like receptor 4 ectodomain, UniProtKB O00206, P23-M629, Drosophila codon-optimized; Cloned into pExpreS2-1-CRPA (Addgene #175445): N-terminal BiP signal peptide for secretion, C-terminal thrombin-cleavable Protein A tag; a few residues of the thrombin site probably remain after cleavage; also called toll-like receptor 4; Drosophila-derived TLR4; source: purified (IgG Sepharose, …)
Nature of the test: SEC; analytical SEC, Superdex 200 Increase 30/100 on a Dionex Ultimate 3000 UHPLC; 100-µl injections of 200 µg TLR4, 400 µg MD-2, or 200 µg TLR4 + 400 µg MD-2; A280 traces; both purified. On the technique in general: SEC sorts molecules by how far they enter the pores of the column.

The target in test [2] is human MD-2 (S2-derived, Protein A tagged) (human) (UniProt Q9Y6Y9). The description is as above.
Test [3] deals with human TLR4 ectodomain co-expressed with MD-2 in S2 cells (human) (UniProt O00206). Nature of the test: pull-down; TLR4 and MD-2 co-expressed in S2 cells; complex purified by IgG pull-down through the Protein A tag and SEC; bands confirmed by in-gel tryptic digest MSMS.

“human TLR4 ectodomain (S2-derived) (from UniProt O00206 23-629) (domain or fragment)”: the binding result in test [1] is given as “no binding”.

B1: human MD-2 (S2-derived, Protein A tagged) (natural protein, UniProt Q9Y6Y9 19-160, looked up)
chain: QKQYWVCNSSDASISYTYCDKMQYPISINVNPCIELKRSKGLLHIFYIPRRDLKQLYFNLYITVNTMNLPKRKEVICRGSDDDYSFCRALKGETVNTTISFSFKGIKFSKGKYKCVVEAISGSPEEMLFCLEFVILHQPNSN
notes: human lymphocyte antigen 96 (MD-2), UniProtKB Q9Y6Y9, Q19-N160, Drosophila codon-optimized; Cloned into pExpreS2-1-CRPA (Addgene #175445): N-terminal BiP signal peptide for secretion, thrombin site and Protein A at the C-terminus; the tag was routinely left on for stability; also called lymphocyte antigen 96; source: purified (IgG Sepharose, SEC); not shown: Protein A, C-terminal, kept
With B1, the binding entry in test [2] was “binds”.

B2: human MD-2 co-expressed with TLR4 in S2 cells (protein, UniProt Q9Y6Y9 19-160)
chain: QKQYWVCNSSDASISYTYCDKMQYPISINVNPCIELKRSKGLLHIFYIPRRDLKQLYFNLYITVNTMNLPKRKEVICRGSDDDYSFCRALKGETVNTTISFSFKGIKFSKGKYKCVVEAISGSPEEMLFCLEFVILHQPNSN
B2: the binding result in test [3] is given as “binds”.
